105 sequences from PubChem BioAssay AID1347423 (Functional Genomics Laboratory (NCATS/FGL), 2020) can be followed below.

Hit rate of the full screen: of about 52,000 sequences, about 210 (0.4%) were called active.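 The calls were made as follows: active = gene whose silencing raises cell survival under the drug, median off-target-corrected z-score across its silencing RNAs 2 or more; inactive = the rest.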 The list shows a part of the results.

This assay can be described thus: Resistance to Poly (ADP-Ribose) Polymerase inhibitor: Gene Identification via Genome-wide siRNA Screen. The following applies: mouse BRCA2 R2336H ES cells, olaparib, CellTiter-Glo viability; hits give high values. An outline of the steps:
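Mouse BRCA2 R2336H ES cells were reverse-transfected with siRNA (20 nM final), treated at 48 h with 500 nM olaparib, and read by CellTiter-Glo after 72 h. Scores: MAD-based z per siRNA, median per gene, seed off-target correction.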
On to GGCCCAUGUAACAAAUAGATT against Tm4sf13, for which the z-score is inactive: 0.154.
As for GGAGCAUUCAAAUUACAUCTT against Ccni, the z-score is inactive: -0.193.
Then GGAGACAGAUCCUCUCAAUTT against Map4k2, with inactive: 1.63; and CCGUCUUCGAUGAGGCAAUTT against Rac2, with inactive: -0.0941.
Then GGCAGAAGCCGUUAGAGAUTT against Ddc8, with inactive: 0.534.
The result for CCAAGUCCAUAGUUGAACUTT against Bnc1 reads inactive: -0.0433; that for GGAGGAACCUACCUUUGACTT against Tbc1d17, inactive: 0.509.
Regarding GCGUAAGGAAGUUCUGUGCTT against Ly96, the z-score is inactive: -0.627.
Then GGUGAACAAUAUCUUCAUCTT against Klf5, with inactive: 0.688; and CCCAAAUGCGCCAAAAUCATT against Deadc1, with inactive: -0.223; and GGUUUUAAAGCAAUGAGCATT against Olfr995, with inactive: 0.778.
Then GCGUAUGGAAUCAUAAGAATT against Smurf2, with inactive: -0.469.
For the sequence “GCUACAUCAAGGAAUUACUTT against D7Bwg0611e”, the z-score is inactive: -0.167.
The result for “CCAGUCACGUUUUAAAAGCTT against 2410075B13Rik” reads inactive: -0.0647; that for GAUCUGUUUGAACAGUAUGTT against Clps, inactive: -0.327.
The result for GGACAUCAUGAACAAGCAATT against Ghrh reads inactive: 1.38.
As to GGAAAAUGUCUGUGAUCAUTT against Tulp3, the z-score was inactive: -0.815.
“GUUAAAGACUAACCUGUUATT against 2310010M20Rik”: the z-score is inactive: -0.402.
On to GGCAAGAUGUAUGAUGCUUTT against Slpi, for which the z-score was inactive: -0.637.
Then “CGAGCAUGUGUUACAUUAUTT against 2600017J23Rik”, with inactive: -0.691.
Consider GGCUCAUCUAUCAGAUUUUTT against Clic5, for which the z-score was inactive: 2.14.
The result for GCUACAAUGUCUUCUGGUCTT against Gcs1 reads inactive: 1.17; that for “GGAAAACAAGUGCAGCAUGTT against D230012E17Rik”, inactive: 0.418; that for “GCACUAGCUAAUAAUGCAATT against 4933425A18Rik”, inactive: 1.68.
The result for GGAAAUGAACUCAUAGCCATT against Olfr121 reads inactive: -0.444; that for GGUGCUAGAUCCACAGAACTT against Agrp, inactive: 1.08; that for GGUCAAUUCACUUUGUAAGTT against Meox1, inactive: 0.979.
As for GAUGGAGAUCAAGAUAUGGTT against Obox5, the z-score was inactive: 1.12.
Then GGUUGUUCGUAGUCUUCCUTT against AI159731, with inactive: -1.43; and CCAACUAAUGCCAAAAGAATT against Fnta, with inactive: -1.32.
Then CCAGUUUUUAGUUGUAGCCTT against Mta3, with inactive: 0.471.
Regarding GGAAUUUGAGGAAUUGACATT against Dck, the z-score is inactive: -0.93.
Then AGAAAUGCCUCUUCAGUGATT against Olfr884, with inactive: 1.32; and GGACAUGAAGAUGGGAUCUTT against Pctk1, with inactive: -0.21; and “CCGAAGUCAACUAAACUUATT against 3110002H16Rik”, with inactive: 0.492.
Then GGCACUAAUGAACAACUCUTT against Daam1, with inactive: 0.0389.
Then GGAAGACUCGGAGUUUCUATT against Ece2, with inactive: 1.88; and CCACCAAGUGGUUUAUACATT against Atf7ip, with inactive: -0.91.
In the case of GGAUAAAUUCAAUGAGACATT against Afm, the z-score is inactive: 0.546.
The result for CCUUGUUGCUCUGUCGAUCTT against Grina reads inactive: -0.202; that for “CCUUAUUAGUGGAUCUAAATT against 1010001D01Rik”, inactive: -0.693; that for “GGAUGAAGAUGAUGGAUGGTT against C330016H24Rik”, inactive: 0.585.
Take GGGUAAGAGUUACAGAAUATT against Serpinb8: the z-score is inactive: -0.46.
The result for CGCAACCUGUCACAUAAUATT against Bmpr2 reads inactive: -0.839; that for GGAAUGGUUUGAAGAACUUTT against Tlr6, inactive: -0.38; that for “CCAGACAUUUGAUAGCCAUTT against 5730508B09Rik”, inactive: 1.24.
As to GCGAGAUAGGCUUUACUCUTT against Kdr, the z-score is inactive: -0.535.
As for GGGCACUUCUGUCUUUGUCTT against P2rx3, the z-score is inactive: 1.94.
Then GGAAAUGCCUUCAGAAAUUTT against Slc9a3r1, with inactive: 0.863; and GGACUUAAGUACAAAGAUCTT against Sap18, with inactive: 2.7; and GGUGAACAAGCUGUCCUCATT against Fgl2, with inactive: 2.97.
The result for GGUAUUAGUAUGUAUCUUCTT against Olfr135 reads inactive: -0.138; that for GGAGAUCAUGAAGGAGCUATT against Lcn7, inactive: -2.15; that for GGCCUUUUUCUUUCUUUUCTT against Olfr212, inactive: 0.911.
Then GCACUGAGCACAAGAAGAGTT against MGC54654, with inactive: -2.13; and GGCAGCCUGAACAUCAAUGTT against S100a13, with inactive: 1.15.
CGACUUGAACAUGGUAAAATT against Eif5b: the z-score is inactive: 1.5.
The result for GGAGACAGAAAAUCAAGGCTT against Taf7 reads inactive: 0.536.
For the sequence CCCAUGACCAAUGGGUGAATT against BC042549, the z-score is inactive: 0.952.
Take GGAUGUGGCUGCUUUGAAGTT against Wbscr27: the z-score was inactive: 0.123.
The result for CCAUGUUUUUAUAGCUCUUTT against BC023957 reads inactive: 0.745; that for GGCAAGUGCAAUUUAUAAATT against Nfib, inactive: -0.656; that for GGAUCAAAGCUCCGGUAUATT against Farslb, inactive: -2.22.
The result for GGAAAAAGUCAGAGAAAAATT against Sstr2 reads inactive: 0.162; that for GGGAAUGGAAGAAUAUUCUTT against Dppa2, inactive: 3.23.
Then GGGAUUUUUUGAACUGAUATT against Nedd4, with inactive: -0.431; and GCCGUUACUGAGCUGAAAUTT against Allc, with inactive: 2.02; and GGGCAUUGUUCACAAGGACTT against Stk11, with inactive: 2.23.
For the sequence GGAUGUUGAAGGUUUUGAATT against Fmr1nb, the z-score is inactive: -0.69.
The result for GGAGAUCCAUUAGUGAGACTT against Mdm2 reads inactive: -1.32; that for GGAAAAGCCUACUUCAAAATT against BC020077, inactive: 1.89.
Then “CGUAUUCAACCUUCAUAGATT against 1700040L02Rik”, with inactive: 0.624; and GGAACUUAAGACUUUCAAGTT against Abcf2, with inactive: -0.611.
With GGAGUGUGGCAUUCAUCCUTT against Olfr667, the z-score was inactive: -0.961.
The result for GCGUGUGCGUGAUAAGUAUTT against Azi1 reads inactive: 0.0507; that for GGAGAGAGGAAUUCAACAGTT against Zfp75, inactive: -0.0317; that for GGGCAAGUUUUUUUUUCUUTT against Sf3a2, inactive: 0.943.
The result for GGUGUUUUCUCCAGUUAAGTT against Hfe reads inactive: -0.34.
CCCAUAUGUGGUUUGUAAUTT against Cryaa: the z-score was inactive: 0.524.
With GCUGACAACCGAUGACAAUTT against Gja8, the z-score is inactive: 1.35.
The result for CGGGUCACAAGGCUUCAAATT against D4Ertd22e reads inactive: -1.42.
The result for CCAAAGAUGUUAUUGGACCTT against Olfr1152 reads inactive: -0.292.
Then CCAGAGAAGUGGCAGCACUTT against Olfr108, with inactive: 0.334; and GCUUUACUAUGUGAGAAAUTT against Ryk, with inactive: 0.134.
For the sequence GGUCUCCAUGGAUUUAUGCTT against Phf7, the z-score is inactive: -0.676.
Then CCAACAAGUGAGCUGCAGATT against Olfr724, with inactive: -1.18.
CGUGUGUGUCAUGUUACGGTT against Dusp2: the z-score was inactive: -1.31.
Then GGUCUUCAAGUCAAUCUUGTT against Chst10, with inactive: 0.402; and GGAAAAUUUGCCUGGACCGTT against Cxcl4, with inactive: 0.842.
Then GGACCAUUCUGCUAGAUGCTT against Tnfrsf1a, with inactive: -0.208; and GGUCUACAGCUACCUGAAUTT against Npc2, with inactive: -1.63.
The result for GGGUCUGUUCGAUUCAUUATT against Mdfi reads inactive: 0.977; that for “CUUCCGAUUUCCAAAUCCUTT against 1700020N01Rik”, inactive: -0.674; that for CCACUGUUGUGCAAUGCUUTT against Snx25, inactive: -0.142.
CCCAAAAGCAAACUUGCUGTT against Hp1bp3: the z-score was inactive: -0.244.
Then GGAGCUCAAGGAAUAGUGUTT against Mapk8, with inactive: -0.237; and GAUCAAAGCGGCGUACUACTT against Wbscr18, with inactive: -0.841.
Then GGUCUGAUUCACCAUAAUUTT against Sspn, with inactive: -0.914; and “GGACAAAUGGUAUUGUAGUTT against 6330578E17Rik”, with inactive: 0.705; and GCCAGACAAAGGUACACUATT against Hmox2, with inactive: -0.181.
Then “GGAAGAGUGACCUUAAGUCTT against 6030405P05Rik”, with inactive: 0.112; and GCUCCUGGGAUACGUAUUATT against Bat5, with inactive: 0.113; and GGGUGGUAGAUUUAUACUATT against Crygc, with inactive: 1.88.
In the case of GGAAAUGACCCAUACUGUUTT against Tia1, the z-score is inactive: 0.438.
As for GGAGGUGGAAUGAGGAAACTT against Cck, the z-score is inactive: 0.322.
